In PubChem BioAssay AID493014 (National Center for Advancing Translational Sciences (NCATS), 2011):
Hit rate of the full screen: of about 340,000 compounds, about 170 (0.05%) were called active. The shares of active, inactive and inconclusive entries below differ from those in the screen. Calls come from the whole dose curve; as a rule, active = well fitted inhibition curve with a large enough effect in the signal ratio, with a control signal flat (not every such curve was filed as active); inconclusive = small, poorly fitted or top-dose-only effect, or effect the other way, or a change in a side signal; inactive = flat fitted curve, though single readings scatter; the % refers to the signal ratio. A potency beside an inconclusive call is a rough fit, not a confirmed value.

Assay: qHTS Assay to Find Inhibitors of Chronic Active B-Cell Receptor Signaling;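 for activity change, negative = inhibition: plate controls were basal doxycycline-induced cells for no effect and cells given 10 µM MG132 for full effect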
Conditions: ABC-DLBCL IkBa-CBG/CBR reporter, luminescence ratio (green luciferase fused to IkBa over red control in TMD8 lymphoma cells), 4 h; activity change, negative = inhibition: at 46.1 µM (top of the series)
In short: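 TMD8 ABC-DLBCL cells carrying doxycycline-inducible green luciferase fused to IkappaBalpha plus unfused red luciferase were exposed to compounds (up to 46 uM) for 4 hrs at 37C. Activity came from the overlap-corrected green/red luminescence ratio.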
Potency is the fitted concentration of half-maximal effect.

| SMILES | activity change, negative = inhibition | Potency |
| --- | --- | --- |
| COc1ccc(NC(=O)COC(=O)CC2CCCCC2)cc1 | inconclusive: 1.01% | – |
| Cc1noc(C)c1NC(=O)Nc1ccc2c(c1)C(=O)N([C@@H](C)CO)C[C@@H](C)[C@@H](CN(C)Cc1ccc3c(c1)OCO3)O2 | inactive: -1.3% | – |
| Cc1cc(C(=O)CCC(=O)Nc2ccc(S(N)(=O)=O)cc2)c(C)s1 | inconclusive: -20.8% | – |
| CCON1C(=O)C(C)(C)N(OCC)C(=O)C1(C)C | inconclusive: 3.52% | – |
| CC(C)(C)SCCSC1=CC(=O)CC(c2ccccc2)C1 (stereo not drawn) | inconclusive: 0.879% | – |
| COc1cc(C2CC(c3ccccc3)=NN2c2ccccc2)ccc1OCC(=O)O (stereo not drawn) | inconclusive: -16.7% | – |
| CCOc1cc(/C=C2\CCCc3c2nc2ccccc2c3C(=O)O)ccc1OC | inactive: 1.17% | – |
| CCCC(=O)Nc1ccc2nn(-c3ccc(OC)cc3)nc2c1 | inconclusive: 1.56% | – |
| O=C(Nc1ccc(Oc2c(F)c(F)c(F)c(F)c2F)cc1)OC1CCN2Cc3ccccc3N=C12 (stereo not drawn) | inactive: 17.4% | – |
| Cc1nn(CCc2nn[nH]n2)c2nc(-c3ccc(Br)cc3)cc(C(F)(F)F)c12 | inactive: 4.69% | – |
| CCOC(=O)C1CCCN(Cc2cccs2)C1 (stereo not drawn) | inconclusive: 0.437% | – |
| COc1ccc(NC(=O)/C=C\C(=O)N(c2ccc(C(C)C)cc2)C(C(=O)NCc2ccco2)c2ccc(C)cc2)cc1 (stereo not drawn) | inconclusive: -1.18% | – |
| C/C(=N/NC(=O)c1ccc(C)s1)c1cccc(NC(=O)c2ccoc2C)c1 | – | inconclusive: 25.1 µM [falling, single point] |
| O=C(Nc1ccc(Cl)cn1)c1ccccc1[N+](=O)[O-] | – | inconclusive: 12.6 µM [falling, partial curve, poor fit] |
| CC1(C)Cc2ccccc2C(NNC(=O)c2cccnc2)=N1 | inactive: -1.46% | – |
| Cn1c(C(=O)NCCN2CCCCCC2)cc2c(=O)n(C)c3ccccc3c21 | inconclusive: 3.53% | – |
| O=C(Nc1c(F)cc(F)cc1Br)c1cc(-c2ccccc2)on1 | – | inconclusive: 17.8 µM [falling, partial curve] |
| CCOc1ccc(/C=N/NC(=O)c2c(C)n(C)c3ccc(OC)cc23)cc1 | inactive: -6.58% | – |
| COc1cccc(Nc2nc3cc(C)ccc3nc2NS(=O)(=O)c2ccc(Cl)cc2)c1 | – | inconclusive: 3.55 µM [falling, partial curve, poor fit] |
| CCOC(=O)C(=CNCC(=O)O)C(=O)OCC | inconclusive: -18.9% | – |
| NC1=NC(c2cn(-c3ccccc3)nc2-c2cccs2)n2c(nc3ccccc32)N1 (stereo not drawn) | inconclusive: 17.4% | – |
| Cc1ccc(NC(=O)CN2CCc3cc4c(cc3C2C)OCCCO4)cc1 (stereo not drawn) | inconclusive: -24.3% | – |
| Clc1ccc(-c2cnc3ccccc3n2)cc1 | inconclusive: 4.61% | – |
| CC(=O)C1C(=O)c2c(cccc2[N+](=O)[O-])C1=Nc1cccc(Cl)c1 (stereo not drawn) | inconclusive: -11.1% | – |
| Cc1c(CCC(=O)N[C@@H](CCCNC(N)=O)C(=O)O)c(=O)oc2cc3oc4c(c3cc12)CCCC4 | – | inconclusive: 2.82 µM [falling, full curve] |
| COC(=O)c1ccc(/C=C(\C#N)c2ccccn2)cc1 | inconclusive: -1.56% | – |
| CCn1c(SCC(=O)Nc2oc(-c3ccccc3)c(-c3ccccc3)c2C#N)nnc1-c1cc(OC)cc(OC)c1 | inconclusive: 26.1% | – |

An excerpt from above in order of formula weight, rising:

| SMILES | activity change, negative = inhibition | Potency |
| --- | --- | --- |
| CCOC(=O)C1CCCN(Cc2cccs2)C1 (stereo not drawn) | inconclusive: 0.437% | – |
| COC(=O)c1ccc(/C=C(\C#N)c2ccccn2)cc1 | inconclusive: -1.56% | – |
| CC(C)(C)SCCSC1=CC(=O)CC(c2ccccc2)C1 (stereo not drawn) | inconclusive: 0.879% | – |

(listing goes on)

| SMILES | activity change, negative = inhibition | Potency |
| --- | --- | --- |
| O=C(COc1ccc2ccccc2c1Br)N1CCOCC1 | inconclusive: 2.18% | – |
| Cc1[nH]c2ccccc2c1/C=N/NC(=O)c1cccc(S(=O)(=O)Nc2cccc(C(F)(F)F)c2)c1 | inconclusive: -27.7% | – |
| O=C(OCC(=O)N1CCCCC1)c1ccc2ccccc2n1 | inactive: -1.74% | – |
| Cc1ccc(C(=O)Nc2ccc(C(=O)O)cc2)cc1S(=O)(=O)NCc1ccccc1 | inconclusive: 8% | – |
| Cc1cccc(C(=O)N2CCc3cc(CNC(=O)c4cc5ccccc5[nH]4)ccc32)c1 | inactive: 13.7% | – |
| CC1(C)Cc2c(C#N)c(N3CCN(C(=O)c4ccccc4)CC3)nc(Cc3ccccc3)c2CO1 | inconclusive: -23.8% | – |
| COCCN(CCOC)c1cc(C)c(C#N)c2nc3ccccc3n12 | inconclusive: -0.885% | – |
| CC(=O)Nc1cc2nn(-c3ccccc3)nc2cc1Cl | inconclusive: 13.5% | – |
| COc1ccc(C)cc1C(=O)CCC(=O)Nc1ccccc1N1CCOCC1 | inconclusive: 10.6% | – |
| COc1ccc(CN2CCN(Cc3ccc(C(F)(F)F)cc3)CC2)c(OC)c1 | inactive: -15.3% | – |
| CCC(Sc1nc(C)cc(=O)[nH]1)C(=O)Nc1nc(-c2ccccc2)cs1 (stereo not drawn) | – | inconclusive: 0.651 µM [rising, full curve] |
| COc1ccc(/C=C2\Oc3cc(OCC(N)=O)ccc3C2=O)cc1OC | inconclusive: -0.488% | – |
| COCC(C)NC(=O)c1ccc(N(C)C)cc1 (stereo not drawn) | inactive: 0.0473% | – |
| CCn1ncc(Br)c1C(=O)Nc1ccc(OC(F)(F)F)cc1 | inconclusive: 5.94% | – |
| O=C(Nc1nnc(SCc2ccc(Cl)cc2)s1)c1cnccn1 | inactive: 0.189% | – |
| CC(C)Oc1ccc(C(=O)/C=C2/C(=O)Nc3ccccc32)cc1 | – | inconclusive: 35.5 µM [falling, single point] |
| CNc1n[nH]c(=S)s1 | inactive: 12.9% | – |
| COc1ccc(C(=O)N2CCN(C3CCCCC3)CC2)cc1OC | inconclusive: 311% | – |
| COc1ccc(-c2cc(C(=O)Nc3cc(C)ccc3O)no2)cc1 | inconclusive: -23.7% | – |
| Cc1ccc(C(C#N)c2ccc(Cl)nn2)cc1 (stereo not drawn) | – | inconclusive: 15.8 µM [rising, partial curve, poor fit] |
| CCCCNC(=O)/C=C/c1ccc(OC)c(Br)c1 | inconclusive: 15.9% | – |
| CCCCn1c(CN2CCN(c3cccc(Cl)c3)CC2)nc2c1c(=O)n(C)c(=O)n2C | inactive: 0.588% | – |
| Cc1ccc2c(c1)C1CN(C)CCC1N2S(=O)(=O)c1ccccc1F (stereo not drawn) | inactive: 0.154% | – |
| CC1(C)CC(=O)C(C=Nc2cc(C(=O)c3ccccc3)ccc2N)=C(O)C1 | – | inconclusive: 35.5 µM [falling, partial curve, poor fit] |
| CCOC(=O)Cc1csc(/N=C/c2c(O)n(-c3ccccc3C(F)(F)F)c(=O)c3ccccc23)n1 | inactive: 8.12% | – |
| CC(=O)c1ccc(OCC(O)Cn2nnc3ccccc32)cc1 (stereo not drawn) | inconclusive: -2.08% | – |
